According to paper PMC8523169:
Where a chain is given by its changes, count along the chain named. No constants are given. Whether binding was seen depends on the method and setting. For part of these data: Binding can be weak; no strength is given.

Assays:
[1] = target: T1, MukB long hinge (LH; amino acid residues 568–863) (E. coli) (UniProt P22523); assay: SEC; analytical SEC, Superose 6 Increase 10/300; proteins mixed at the indicated ratios (LH:MatP:ParC^CTD 1:2:2; LH or LH^KKK at 20 µM with MatP 1:2), 1 h on ice; 50 mM HEPES pH 7.5, 100 mM NaCl, 1 mM MgCl2, 1 mM DTT, 10% glycerol; fractions on SDS-PAGE; both purified
T1 sequence: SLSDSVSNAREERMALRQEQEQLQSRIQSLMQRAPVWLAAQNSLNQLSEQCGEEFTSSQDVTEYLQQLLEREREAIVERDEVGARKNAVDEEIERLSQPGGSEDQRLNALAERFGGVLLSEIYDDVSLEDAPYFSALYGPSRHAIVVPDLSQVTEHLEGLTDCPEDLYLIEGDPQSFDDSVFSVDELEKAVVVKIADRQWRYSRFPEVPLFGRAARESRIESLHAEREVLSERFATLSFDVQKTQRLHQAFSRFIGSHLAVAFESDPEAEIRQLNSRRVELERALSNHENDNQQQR

[2] = target: T1, MukB long hinge (LH; amino acid residues 568–863) (E. coli); assay: native gel or EMSA; native PAGE; varying ratios of MatP or ParC^CTD with LH or LH^KKK (3 µM), 30 min on ice; 50 mM HEPES pH 7.5, 100 mM NaCl, 1 mM MgCl2, 1 mM DTT, 10% glycerol; Coomassie; both purified
[3] = target: T2, LH^KKK (MukB long hinge 568–863 with D697K D745K E753K) (E. coli) (UniProt P22523); assay: as above
T2 sequence: T1 sequence with D130K, D178K, E186K

binding [1]: binds
binding [2]: binds
binding [3]: no binding (tested: LH^KKK at 3 µM)
Substance: MBP-ParC^CTD (ParC C-terminal domain with N-terminal MBP fusion) (E. coli) (domain or fragment)
